PubChem BioAssay AID1259425 | University of Nebraska Medical Center, 2018
This is one part, drawn at random, of about 14,000 reagents tested. Not given: the time to read-out.

Screen: 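Compare each knockdown with KSR1 silencing using changes in marker transcripts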 (primary screen)
System: HCT116 human colon cancer cells
Reagents: siRNA pool against human genes, 50 nM siRNA
Detection: 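After 50 nM siRNA pool, branched-DNA assay measures six marker transcripts per well, minus blank, normalised to the geometric mean of two housekeeping transcripts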
Scale: BNIP3L mRNA: higher = more BNIP3L transcript after knockdown; NDRG1 mRNA: higher = more NDRG1 transcript after knockdown; BNIP3 mRNA: higher = more BNIP3 transcript after knockdown; ALDOC mRNA: higher = more ALDOC transcript after knockdown; ACSL5 mRNA: higher = more ACSL5 transcript after knockdown

| target | BNIP3L mRNA, set 1 | NDRG1 mRNA, set 1 | BNIP3 mRNA, set 1 | ALDOC mRNA, set 1 | ACSL5 mRNA, set 1 |
| --- | --- | --- | --- | --- | --- |
| ZPR1 | 0.173 | 0.203 | 0.412 | 0.0493 | 0.328 |
| APPL2 | 0.141 | 0.302 | 0.294 | 0.0191 | 0.136 |
| ZBTB2 | 0.202 | 0.691 | 0.54 | 0.0488 | 0.0887 |
| LNPEP | 0.101 | 0.31 | 0.248 | 0.0174 | 0.172 |
| GOSR2 | 0.0511 | 0.105 | 0.241 | 0.0141 | 0.118 |
| PROK1 | 0.216 | 0.453 | 0.282 | 0.0228 | 0.128 |
| RBFA | 0.195 | 0.476 | 0.272 | 0.0521 | 0.282 |
| AARS2 | 0.268 | 0.526 | 0.268 | -0.0132 | 0.226 |
| DEFA3 | 0.0984 | 0.122 | 0.285 | 0.00839 | 0.0921 |
| AHR | 0.0579 | 0.181 | 0.23 | 0.0407 | 0.103 |
| GCN1 | 0.153 | 0.334 | 0.357 | 0.0307 | 0.221 |
| CUL5 | 0.126 | 0.164 | 0.355 | 0.033 | 0.146 |
| HOXB9 | 0.109 | 1.21 | 0.297 | 0.0282 | 0.172 |
| BMAL2 | 0.0815 | 0.0922 | 0.206 | 0.0222 | 0.115 |
| DHRS9 | 0.215 | 0.164 | 0.243 | 0.0475 | 0.153 |
| TBXA2R | 0.149 | 2.05 | 0.259 | 0.0825 | 0.252 |
| TAGLN2 | 0.172 | 0.161 | 0.441 | 0.0446 | 0.136 |
| PROS1 | 0.0725 | 0.289 | 0.284 | 0.0165 | 0.164 |
| PRIM1 | 0.0812 | 0.19 | 0.301 | 0.0344 | 0.118 |
| UBE2V1 | 0.101 | 0.259 | 0.239 | 0.029 | 0.0911 |
| AXIN2 | 0.0935 | 0.156 | 0.256 | 0.0175 | 0.182 |
| ZCCHC8 | 0.091 | 0.159 | 0.277 | 0.0244 | 0.165 |
| SCN1A | 0.131 | 0.0522 | 0.256 | 0.0321 | 0.0733 |
| KIF3C | 0.235 | 0.148 | 0.43 | 0.109 | 0.364 |
| SMPDL3A | 0.136 | 0.178 | 0.354 | 0.0394 | 0.164 |
| TSKS | 0.0605 | 0.105 | 0.324 | 0.0116 | 0.184 |
| DET1 | 0.0993 | 0.537 | 0.323 | 0.0159 | 0.124 |
| ARHGAP9 | 0.154 | 0.846 | 0.449 | 0.0251 | 0.409 |
| H2BC12 | 0.145 | 0.159 | 0.299 | 0.0367 | 0.182 |
| CDH23 | 0.233 | 0.359 | 0.356 | 0.0192 | 0.435 |
| SPINK2 | 0.0574 | 0.113 | 0.24 | 0.0179 | 0.193 |
| CARD6 | 0.117 | 0.211 | 0.329 | 0.0083 | 0.116 |
| SERPINF1 | 0.148 | 0.392 | 0.378 | 0.044 | 0.274 |
| FAM120B | 0.201 | 0.449 | 0.304 | 0.0872 | 0.255 |
| ADCY7 | 0.186 | 0.414 | 0.388 | 0.0857 | 0.315 |
| NFKBIE | 0.0985 | 0.533 | 0.143 | 0.0183 | 0.126 |
| TSEN34 | 0.15 | 0.241 | 0.309 | 0.0222 | 0.16 |
| STK26 | 0.0988 | 0.218 | 0.363 | 0.0176 | 0.195 |
| IL12RB2 | 0.0622 | 0.345 | 0.251 | 0.0439 | 0.128 |
| DBN1 | 0.113 | 0.373 | 0.322 | 0.0185 | 0.144 |
| PSAT1 | 0.153 | 0.257 | 0.376 | 0.0378 | 0.148 |
| SEC61B | 0.465 | 0.468 | 0.515 | 0.0396 | 0.136 |
| CEP192 | 0.125 | 0.238 | 0.45 | 0.0471 | 0.169 |
| PPP6R1 | 0.186 | 0.403 | 0.43 | 0.0592 | 0.196 |
| MXD1 | 0.112 | 0.209 | 0.231 | 0.0024 | 0.267 |
| DCN | 0.124 | 0.129 | 0.232 | 0.019 | 0.185 |
| EXOC1 | 0.0759 | 0.0939 | 0.34 | 0.0407 | 0.146 |
| ALKBH4 | 0.0743 | 0.36 | 0.259 | 0.0337 | 0.154 |
| OAZ3 | 0.118 | 0.33 | 0.274 | 0.0313 | 0.139 |
| CLC | 0.122 | 0.154 | 0.251 | 0.0196 | 0.262 |
